Reference: the supplement of paper PMC8166895
Where a name gives a salt, the structure may show the parent alone. This is one part of the list. Most entries show no effect beyond the scatter of the controls.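 A single-replicate pilot screen of approved drugs and clinical or known-target compounds measured melting temperature via differential scanning fluorimetry. Top stabilizing hits raised the melting point by 2 °C or more; negative shifts indicate destabilization.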 *1 amine or outer side, *2 acyl side, *3 side chain or, on linkers, in order; H or OH if unused. Where a SMILES comes first, the peptide text is derived from it. Bridges are numbered along the chain shown (N, C = ends). Roman numbers before positions name the chains, in order. [ ]: non-standard residue; d: D form. Hexamethylenediamine = C(CCCN[*:2])CCN[*:1]; Dip = N[C@H](C(=O)O)C(c1ccccc1)c1ccccc1; Chg = N[C@H](C(=O)O)C1CCCCC1; NMeA = CN[C@@H](C)C(=O)O

System: SARS-CoV-2 main protease (Mpro, nsp5)
Assay: thermal shift ΔTm of Mpro relative to plate average Tm; higher = stronger thermal stabilization of Mpro (binding)
Conditions: 10 µM; protein concentration 1 µM

Row | Structure (SMILES) | thermal shift ΔTm of Mpro
1 | Cc1onc(-c2ccccc2)c1C(=O)N[C@@H]1C(=O)N2[C@@H]1SC(C)(C)[C@@H]2C(=O)O [Oxacillin sodium] | 0.129 °C
2 | COc1ccccc1N1CCN(CCN2C(=O)CC3(CCCC3)CC2=O)CC1 | -0.142 °C
3 | O=C(Nc1ccc(Cl)cc1)c1cc(Br)ccc1O [Salifungin] | 0.0827 °C
4 | CC(C)CCNc1ncccc1C(=O)N1CCN(Cc2ccccc2)CC1 | -0.0622 °C
5 | OCC(O)CN1CCN(c2ccccc2)CC1 (stereo unspecified) [Dropropizine] | -0.15 °C
6 | N=C1S/C(=C\c2ccc(-c3ccc4c(c3)C(=O)NC4=O)o2)C(=O)N1c1ccc(Br)cc1 [Bioymifi] | 0.242 °C
7 | CC1=C(CSC(=S)N2CCCCC2)C(=O)c2ccccc2C1=O [PKM2 inhibitor] | 0.0379 °C
8 | COc1cc(N)c(Cl)cc1C(=O)NC1CCN(CCCOc2ccc(F)cc2)CC1OC (stereo unspecified) [Cisapride] | 0.129 °C
9 | CN(C)CCC(c1ccc(Cl)cc1)c1ccccn1 (stereo unspecified) [Chlorpheniramine Maleate] | 0.0445 °C
10 | COc1cccc(OCCCN)c1-c1cc(Nc2cnc(C#N)cn2)n[nH]1 [Prexasertib dihydrochloride] | -0.11 °C
11 | Fc1ccc(-n2cc(CCCCN3CCC4(CC3)OCc3ccccc34)c3ccccc32)cc1 [Siramesine hydrochloride] | 0.022 °C
12 | CC(C)[C@H](NC(=O)OCC1c2ccccc2-c2ccccc21)C(=O)N[C@@H](C)C(=O)Nc1ccc(CO)cc1 | -0.0827 °C
13 | CC(C)(C)c1cc(/C=C(\C#N)C(N)=S)cc(C(C)(C)C)c1O [Tyrphostin AG 879] | 0.963 °C
14 | CCC(=O)NCC[C@@H]1CCc2ccc3c(c21)CCO3 [Ramelteon] | 0.192 °C
15 | COC1=CC(=O)C[C@@H](C)[C@]12Oc1c(Cl)c(OC)cc(OC)c1C2=O [Griseofulvin] | 0.152 °C
16 | O=S(=O)(NCCNC/C=C/c1ccc(Br)cc1)c1cccc2cnccc12 | -0.179 °C
17 | O[C@@H](COc1cccc2ncccc12)CN1CCN(C2c3ccccc3[C@@H]3[C@H](c4ccccc42)C3(F)F)CC1 (stereo partly specified) | -0.0326 °C
18 | C[S+](CC[C@H](N)C(=O)O)C[C@H]1O[C@@H](n2cnc3c(N)ncnc32)[C@H](O)[C@@H]1O (stereo partly drawn) [S-(5'-Adenosyl)-L-methionine tosylate] | 0.28 °C
19 | NS(=O)(=O)NCCNc1nonc1/C(=N/O)Nc1ccc(F)c(Br)c1 | 0.155 °C
20 | COc1ccc(-c2coc3cc(O)cc(O)c3c2=O)cc1 [Biochanin A] | 0.283 °C
21 | COC(=O)Nc1nc2cc(C(=O)c3ccc(F)cc3)ccc2[nH]1 [Flubendazole] | 0.0164 °C
22 | Cc1ccc(-n2[nH]c(C)c(N=Nc3cccc(-c4cccc(C(=O)O)c4)c3O)c2=O)cc1C [Eltrombopag Olamine] | -0.0249 °C
23 | Cc1ccc(-n2[nH]c(C)c(N=Nc3cccc(-c4cccc(C(=O)O)c4)c3O)c2=O)cc1C [Eltrombopag] | 0.0233 °C
24 | COc1cc2ncnc(Nc3cccc(O)c3)c2cc1OC | 0.00426 °C
25 | Cc1c(-c2ccc3c(c2)CN(C2CC2)C3=O)nnn1-c1cccnc1F | -0.107 °C
26 | O=C(O[C@@H]1C[C@@H]2C[C@H]3C[C@H](C1)N2CC3=O)c1c[nH]c2ccccc12 [Dolasetron] | 0.0564 °C

Reprinted, nos. 24–26
Row | Structure (SMILES) | thermal shift ΔTm of Mpro
24 | COc1cc2ncnc(Nc3cccc(O)c3)c2cc1OC | 0.00426 °C
25 | Cc1c(-c2ccc3c(c2)CN(C2CC2)C3=O)nnn1-c1cccnc1F | -0.107 °C
26 | O=C(O[C@@H]1C[C@@H]2C[C@H]3C[C@H](C1)N2CC3=O)c1c[nH]c2ccccc12 [Dolasetron] | 0.0564 °C

Additional records follow.

Row | Structure (SMILES) | thermal shift ΔTm of Mpro
27 | COc1ccc2cc1Oc1ccc(cc1)C[C@H]1c3c(cc4c(c3Oc3cc5c(cc3OC)CCN(C)[C@@H]5C2)OCO4)CCN1C [Cepharanthine] | -0.258 °C
28 | Nc1ccc(F)cc1NC(=O)c1ccc(CNC(=O)/C=C/c2cccnc2)cc1 [Chidamide] | 0.0325 °C
29 | NC1=N[C@@]2(c3cc(NC(=O)c4ccc(F)cn4)ccc3F)COC[C@H]2CS1 | -0.0366 °C
30 | Cn1c(=O)c2[nH]c(Br)nc2n(C)c1=O [Pamabrom] | 0.224 °C
31 | COc1ccc(COc2cc3oc(=O)c4cc(C(C)O)ccc4c3cc2OC)cc1 (stereo unspecified) [Palomid 529 (P529)] | -0.137 °C
32 | Cc1cc(-c2ccccc2)nnc1C(=O)N1CCN(c2ncccn2)CC1 | -0.0889 °C
33 | CCS(=O)(=O)N1CCC([C@@H](C)n2c(C)c(C(=O)NCc3c(OC)cc(C)[nH]c3=O)c3ccccc32)CC1 | -0.0594 °C
34 | Fc1ccc(CNc2ncnc3ccc(F)cc23)cc1 [Spautin-1] | 0.182 °C
35 | O=S(=O)(N=Cc1c(O)ccc2ccccc12)c1cccs1 | -0.249 °C
36 | CO[C@H]1C[C@@H]2CC[C@@H](C)[C@@](O)(O2)C(=O)C(=O)N2CCCC[C@H]2C(=O)O[C@H]([C@H](C)C[C@@H]2CC[C@@H](OP(C)(C)=O)[C@H](OC)C2)CC(=O)[C@H](C)/C=C(\C)[C@@H](O)[C@@H](OC)C(=O)[C@H](C)C[C@H](C)/C=C/C=C/C=C/1C [Ridaforolimus (Deforolimus, MK-8669)] | -0.368 °C
37 | c1ccc([C@@H]2C[C@H]2NC2CCNCC2)cc1 | -0.00344 °C
38 | Cc1c(OCC(F)(F)F)ccnc1C[S+]([O-])c1nc2ccccc2[nH]1 (stereo unspecified) [Lansoprazole] | 0.491 °C
39 | O=C(O)c1ccc(S(=O)(=O)N(Cc2ccc(OC(F)(F)F)cc2)c2ncc(C(F)(F)F)cc2Cl)cc1 | -0.115 °C
40 | CCN1CCN(c2cc(-c3ccc(F)cc3)c3c(n2)CCCCCC3)CC1 [Blonanserin] | -0.276 °C
41 | CC=C(C)C(=O)O[C@H]1[C@H](OC(C)=O)[C@@]2(CO)C(CC1(C)C)C1=CCC3[C@@]4(C)CC[C@H](O[C@@H]5O[C@H](C(=O)O)[C@@H](O[C@@H]6O[C@H](CO)[C@@H](O)[C@H](O)[C@H]6O)[C@H](O)[C@H]5O[C@@H]5O[C@H](CO)[C@@H](O)[C@H](O)[C@H]5O)[C@](C)(CO)C4CC[C@@]3(C)[C@]1(C)C[C@H]2O (stereo partly specified) [Sapogenins Glycosides] | -0.0627 °C
42 | CC[C@@H]1C(=O)N(C)c2cnc(Nc3ccc(C(=O)NC4CCN(C)CC4)cc3OC)nc2N1C1CCCC1 | 0.00871 °C
43 | O=C1CCc2c(ccc3ccccc23)O1 [Splitomicin] | -0.23 °C
44 | O=C(O)Cc1cccnc1 [3-Pyridylacetic acid hydrochloride] | 0.236 °C
45 | S=P(N1CC1)(N1CC1)N1CC1 [Triethylenethiophosphoramide] | 0.177 °C
46 | c1cnc(NCc2ccc(CNc3ncccn3)cc2)nc1 | 0.221 °C
47 | CNC(=O)CN1CCC(Oc2cc3c(Nc4cccc(Cl)c4F)ncnc3cc2OC)CC1 [AZD8931 (Sapitinib)] | -0.0649 °C
48 | COc1ccc2cc(Br)ccc2c1 [2-Bromo-6-methoxynaphthalene] | -0.167 °C
49 | CCN1CCCC1CNC(=O)c1cc(S(=O)(=O)CC)c(N)cc1OC (stereo unspecified) [Amisulpride] | 0.171 °C
50 | Nc1nc(N)nc(-c2cc(Cl)ccc2Cl)n1 [Irsogladine] | 0.0948 °C
51 | O=C(O)CCn1c(O)c(C2=c3cc(Cl)ccc3=NC2=O)sc1=S | 0.0874 °C
52 | CCCS(=O)(=O)Nc1ccc(F)c(C(=O)c2c[nH]c3ncc(Cl)cc23)c1F | -0.0596 °C

Row | Structure (SMILES) | thermal shift ΔTm of Mpro
53 | O=C(Nc1cccc(Cl)c1)Nc1ncc(CCNc2ncnc3ccsc23)s1 [SNS-314 Mesylate] | 0.178 °C
54 | Nc1n[nH]c2cc(-c3ccc(=O)n(Cc4cccc(Cl)c4)c3)ccc12 | 0.245 °C
55 | Nc1ncnc2c1c(-c1cccc(OCc3ccccc3)c1)cn2C1CC(CN2CCCC2)C1 (stereo unspecified) | 0.149 °C
56 | Clc1ccc2c(NCCNc3ccnc4cc(Cl)ccc34)ccnc2c1 | 0.0093 °C
57 | Cc1ccc(NC(=O)Nc2cc(-c3ccccc3-c3nn[nH]n3)ccc2N(CC(C)C)CC(C)C)cc1 | -0.635 °C
58 | CN(C)c1ccc(C2Nc3ccc4ccccc4c3C3=C2C(=O)CC(C)(C)C3)cc1Br (stereo unspecified) [Glutaminase C-IN-1] | -0.0692 °C
59 | CCc1c(C(=O)NCCc2ccc(N3CCCCC3)cc2)[nH]c2ccc(Cl)cc12 | 0.0884 °C
60 | c1ccc(Cc2nc3ccccc3[nH]2)cc1 [Bendazol] | 0.267 °C
61 | Nc1cccc(-c2cc3c(Oc4cccc(O)c4)ncnc3[nH]2)c1 | 0.044 °C
62 | CC(C)[C@H]1CC[C@H](C(=O)N[C@H](Cc2ccccc2)C(=O)O)CC1 [Nateglinide] | -0.0887 °C
63 | COC(=O)/C(=C1/OC(=O)C(c2ccccc2)=C1O)c1ccccc1 [Vulpinic Acid] | 0.192 °C
64 | COc1c(O)cc2c(c1O)[C@@H]1O[C@H](CO)[C@@H](O)[C@H](O)[C@H]1OC2=O [Bergenin] | 0.317 °C
65 | COc1ccc(CCCOC(Cn2ccnc2)c2ccc(OC)cc2)cc1 (stereo unspecified) | 0.0489 °C
66 | COc1cc(-c2nc3ccccc3s2)ccc1O | 1.26 °C
67 | COc1ccc(C(C)=O)c(O)c1 [Paeonol] | -0.111 °C
68 | COc1ccc(-n2nc(C(N)=O)c3c2C(=O)N(c2ccc(N4CCCCC4=O)cc2)CC3)cc1 [Apixaban] | -0.0301 °C
69 | CCC(CC)[C@H](NC(C)=O)[C@@H]1[C@H](O)[C@@H](C(=O)O)C[C@H]1NC(=N)N [Peramivir Trihydrate] | 0.00417 °C
70 | CC(C)c1nc(CN(C)C(=O)N[C@H](C(=O)N[C@@H](Cc2ccccc2)C[C@H](O)[C@H](Cc2ccccc2)NC(=O)OCc2cncs2)C(C)C)cs1 [Ritonavir] | -0.159 °C
71 | CC1C=CC=CCCC=CC=CC=CC=CC(OC2OC(C)C(O)C(N)C2O)CC2OC(O)(CC(O)C(O)CCC(O)CC(O)CC(O)CC(=O)OC(C)C(C)C1O)CC(O)C2C(=O)O (stereo unspecified) [Nystatin (Fungicidin)] | 0.0162 °C
72 | COc1ccccc1OCCNCC(O)COc1cccc2[nH]c3ccccc3c12 (stereo unspecified) [Carvedilol] | -0.0999 °C
73 | COc1ccccc1OCCNCC(O)COc1cccc2[nH]c3ccccc3c12 (stereo unspecified) [Carvedilol phosphate] | -0.144 °C
74 | CC1CCc2cc(F)cc3c(=O)c(C(=O)O)cn1c23 (stereo unspecified) [Flumequine] | -0.1 °C
75 | COc1cc(N2CCC(N3CCN(C)CC3)CC2)ccc1Nc1ncc(Cl)c(Nc2ccccc2S(=O)(=O)C(C)C)n1 | 0.175 °C
76 | CN[C@@H](C)C(=O)N[C@H](C(=O)N1CCC[C@H]1C(=O)N[C@H](C(=O)NCCCCCCNC(=O)[C@@H](NC(=O)[C@@H]1CCCN1C(=O)[C@@H](NC(=O)[C@H](C)NC)C1CCCCC1)C(c1ccccc1)c1ccccc1)C(c1ccccc1)c1ccccc1)C1CCCCC1 (I: H-[NMeA][Chg]P[Dip] / II: H-[NMeA][Chg]P[Dip]; linker I:C-II:C via Hexamethylenediamine) | -0.661 °C
